Results taken from PubChem BioAssay AID2566 (National Center for Advancing Translational Sciences (NCATS), 2010).
The shares of active, inactive and inconclusive entries below differ from those in the screen. Calls of active or inactive are those of the source.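 The calls were made as follows: active = compound that pushes labeled neuropeptide S off its receptor in a binding test; inconclusive = all other tested compounds; inactive = none, nothing was called inactive.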

Chains of the proteins cited; added tags and fusions are not shown. Lines headed by an entry give the natural chain unless they say otherwise; changes in a name come on top.
UniProt Q6W5P4: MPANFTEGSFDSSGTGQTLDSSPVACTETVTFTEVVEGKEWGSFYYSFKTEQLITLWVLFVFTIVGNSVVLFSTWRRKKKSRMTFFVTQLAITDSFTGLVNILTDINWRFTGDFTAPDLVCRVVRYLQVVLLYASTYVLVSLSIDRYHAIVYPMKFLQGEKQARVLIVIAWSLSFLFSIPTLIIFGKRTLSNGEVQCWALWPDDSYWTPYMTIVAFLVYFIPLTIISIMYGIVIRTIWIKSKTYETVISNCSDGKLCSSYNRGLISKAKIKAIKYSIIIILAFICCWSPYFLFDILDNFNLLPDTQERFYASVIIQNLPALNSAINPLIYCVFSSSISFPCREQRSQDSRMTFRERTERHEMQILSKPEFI

The compounds below were run against Neuropeptide S receptor (Homo sapiens) (UniProt Q6W5P4) (assay: Confirmation Concentration-Response Assay for Antagonists of the Neuropeptide S Receptor: Radioligand Displacement, SAR for Probe). Settings: CHO-hNPSR, [125I]Y10-NPS displacement, 1.5 h; radioactive counts, lower = displacement: at 180 µM (top of the series).
Text: NIH Chemical Genomics Center [NCGC] NIH Molecular Libraries Probe Production centers Network [MLPCN] MLPCN Grant: X01-DA026210-01 Assay Submitter (PI): Heilig, Markus Alexander NCGC Assay Overview: Neuropeptide S receptor (NPSR), previously known as GPR154, is a recently de-orphanized G protein coupled receptor. Its endogenous ligand is the 20 amino acids peptide Neuropeptide S (NPS). […] NPS and its receptor are found in various tissues. Specifically they are highly expressed in brain areas that have been implicated in modulation of arousal, stress and anxiety. Central administration of NPS in mice produces an unusual profile of activity by inducing wakefulness and arousal, while at the same time suppressing anxiety. Therefore, NPSR may represent a novel drug target for the treatment of sleep and anxiety disorders. As one method of confirming the specific activity of compounds active in the primary screen (AID 1461), we developed an assay to measure the displacement of radio-labeled native ligand, NPS, from its receptor in vitro.
The assay was carried out as described (Xu et al. (2004) Neuron, 43: 487-497) with minor modification. Y10-NPS labeled with 125I was bought from NEN Perkin Elmer (Boston, MA). CHO cells stably expressing human NPSR were seeded into 24-well plates and cultured until reaching 90-95% confluency. Cells were washed with 1ml PBS once and then incubated with radioligand with or without compounds or in DMEM medium containing 0.1% bovine serum albumin at 20C for 1.5 hr. Increasing concentrations of compounds or unlabeled human NPS were used to compete with 0.15 nM [125I] Y10-NPS. Nonspecific binding was determined in the presence of 1 uM unlabeled human NPS. Cells were washed twice with cold PBS and lysed with 1 N NaOH. Bound radioactivity was counted in a liquid scintillation counter.

SMILES	radioactive counts, lower = displacement	Potency
O=C(/C=C/c1ccco1)NC(=S)Nc1cccc(-c2nc3ccccc3o2)c1	inconclusive: 58700	
CC1CCN(S(=O)(=O)c2ccc(C(=O)Nc3sccc3C(N)=O)cc2)CC1	inconclusive: 44800	
O=C(COC(=O)c1ccccc1C(=O)c1ccc(Cl)c([N+](=O)[O-])c1)NC1CCCCCC1	inconclusive: 34300	
CCOC(=O)CC(=O)Nc1ncnc2c1C(c1ccccc1)c1c(ccc3ccccc13)O2 (stereo unspecified)		active: 616 nM
CC1CCCCN1S(=O)(=O)c1ccc(C(=O)Nc2sccc2C(N)=O)cc1 (stereo unspecified)	inconclusive: 42400	
CCC(C)(CCN1CCOCC1)N(Cc1cc2ccccc2n(C)c1=O)C(=O)C1CCCCC1 (stereo unspecified)		active: 6.54 nM
